Assay results reported in PMC8384837.
The other results are listed elsewhere or left out. The source does not settle which construct or isoform was used.

biological target: T1, PUM1 PUF domain R5-PHQ R6-SWD C1007P + R1008H + N1043S + Y1044W + Q1047D (UniProt Q14671); settings: yeast three-hybrid, YBZ-1, SC-Leu-His + 0.5 mM 3-AT, 4 days
T1 sequence: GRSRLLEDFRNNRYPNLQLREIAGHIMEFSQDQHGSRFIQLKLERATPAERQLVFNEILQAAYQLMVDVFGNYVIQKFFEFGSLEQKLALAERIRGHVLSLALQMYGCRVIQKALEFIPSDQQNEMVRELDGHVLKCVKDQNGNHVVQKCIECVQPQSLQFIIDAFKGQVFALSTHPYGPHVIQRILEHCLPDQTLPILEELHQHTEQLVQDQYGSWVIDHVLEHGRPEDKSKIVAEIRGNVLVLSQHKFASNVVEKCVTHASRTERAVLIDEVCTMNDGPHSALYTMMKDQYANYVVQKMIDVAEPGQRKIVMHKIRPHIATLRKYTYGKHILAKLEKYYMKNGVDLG

| Sequence | binding signal (log2 enrichment (interaction score)) |
| --- | --- |
| GGCUAGAACUAGUGGAUCCCCCGGCGCCCGGCGGCUCGAGCCCGGGUAAGAUUAAGAAGUCUGCAUGCCGCCGGGCGCCAUGCCUGCAGGUCGACUCUAGAAAACAUG | < -7.53 |
| GGCUAGAACUAGUGGAUCCCCCGGCGCCCGGCGGCUCGAGCCCGGGUAAGUUGAAUAAGUCUGCAUGCCGCCGGGCGCCAUGCCUGCAGGUCGACUCUAGAAAACAUG | -7.42 |
| GGCUAGAACUAGUGGAUCCCCCGGCGCCCGGCGGCUCGAGCCCGGGUAAGCAGAAAAGGUCUGCAUGCCGCCGGGCGCCAUGCCUGCAGGUCGACUCUAGAAAACAUG | < -7.76 |
| GGCUAGAACUAGUGGAUCCCCCGGCGCCCGGCGGCUCGAGCCCGGGUAAGUGUACACCGUCUGCAUGCCGCCGGGCGCCAUGCCUGCAGGUCGACUCUAGAAAACAUG | -6.95 |
| GGCUAGAACUAGUGGAUCCCCCGGCGCCCGGCGGCUCGAGCCCGGGUAAGUACACGUAGUCUGCAUGCCGCCGGGCGCCAUGCCUGCAGGUCGACUCUAGAAAACAUG | -7.31 |
| GGCUAGAACUAGUGGAUCCCCCGGCGCCCGGCGGCUCGAGCCCGGGUAAGUUGAAUUCGUCUGCAUGCCGCCGGGCGCCAUGCCUGCAGGUCGACUCUAGAAAACAUG | < -7.27 |
| GGCUAGAACUAGUGGAUCCCCCGGCGCCCGGCGGCUCGAGCCCGGGUAAGUUCAGACAGUCUGCAUGCCGCCGGGCGCCAUGCCUGCAGGUCGACUCUAGAAAACAUG | < -7.43 |
| GGCUAGAACUAGUGGAUCCCCCGGCGCCCGGCGGCUCGAGCCCGGGUAAGUUGAUAAGGUCUGCAUGCCGCCGGGCGCCAUGCCUGCAGGUCGACUCUAGAAAACAUG | -7.43 |
| GGCUAGAACUAGUGGAUCCCCCGGCGCCCGGCGGCUCGAGCCCGGGUAAGGGAAAAGUGUCUGCAUGCCGCCGGGCGCCAUGCCUGCAGGUCGACUCUAGAAAACAUG | -7.49 |
| GGCUAGAACUAGUGGAUCCCCCGGCGCCCGGCGGCUCGAGCCCGGGUAAGGUAAAACAGUCUGCAUGCCGCCGGGCGCCAUGCCUGCAGGUCGACUCUAGAAAACAUG | -8.54 |
| GGCUAGAACUAGUGGAUCCCCCGGCGCCCGGCGGCUCGAGCCCGGGUAAGAUUAAAUCGUCUGCAUGCCGCCGGGCGCCAUGCCUGCAGGUCGACUCUAGAAAACAUG | -7.66 |
| GGCUAGAACUAGUGGAUCCCCCGGCGCCCGGCGGCUCGAGCCCGGGUAAGCGACAAAAGUCUGCAUGCCGCCGGGCGCCAUGCCUGCAGGUCGACUCUAGAAAACAUG | < -7.42 |
| GGCUAGAACUAGUGGAUCCCCCGGCGCCCGGCGGCUCGAGCCCGGGUAAGCAUAAAAUGUCUGCAUGCCGCCGGGCGCCAUGCCUGCAGGUCGACUCUAGAAAACAUG | < -7.72 |
| GGCUAGAACUAGUGGAUCCCCCGGCGCCCGGCGGCUCGAGCCCGGGUAAGUGGUCGAAGUCUGCAUGCCGCCGGGCGCCAUGCCUGCAGGUCGACUCUAGAAAACAUG | < -6.98 |
| GGCUAGAACUAGUGGAUCCCCCGGCGCCCGGCGGCUCGAGCCCGGGUAAGUGAACGUCGUCUGCAUGCCGCCGGGCGCCAUGCCUGCAGGUCGACUCUAGAAAACAUG | -7.48 |
| GGCUAGAACUAGUGGAUCCCCCGGCGCCCGGCGGCUCGAGCCCGGGUAAGUGGUAGCAGUCUGCAUGCCGCCGGGCGCCAUGCCUGCAGGUCGACUCUAGAAAACAUG | -7.31 |
| GGCUAGAACUAGUGGAUCCCCCGGCGCCCGGCGGCUCGAGCCCGGGUAAGUUGGGAUCGUCUGCAUGCCGCCGGGCGCCAUGCCUGCAGGUCGACUCUAGAAAACAUG | < -7.08 |
| GGCUAGAACUAGUGGAUCCCCCGGCGCCCGGCGGCUCGAGCCCGGGUAAGUGGAGCACGUCUGCAUGCCGCCGGGCGCCAUGCCUGCAGGUCGACUCUAGAAAACAUG | < -7.15 |
| GGCUAGAACUAGUGGAUCCCCCGGCGCCCGGCGGCUCGAGCCCGGGUAAGUCUAAAAGGUCUGCAUGCCGCCGGGCGCCAUGCCUGCAGGUCGACUCUAGAAAACAUG | -8.18 |
| GGCUAGAACUAGUGGAUCCCCCGGCGCCCGGCGGCUCGAGCCCGGGUAAGUCGGAUUGGUCUGCAUGCCGCCGGGCGCCAUGCCUGCAGGUCGACUCUAGAAAACAUG | < -8.51 |
| GGCUAGAACUAGUGGAUCCCCCGGCGCCCGGCGGCUCGAGCCCGGGUAAGUGGCCACUGUCUGCAUGCCGCCGGGCGCCAUGCCUGCAGGUCGACUCUAGAAAACAUG | -8.48 |
| GGCUAGAACUAGUGGAUCCCCCGGCGCCCGGCGGCUCGAGCCCGGGUAAGAUGAUAUCGUCUGCAUGCCGCCGGGCGCCAUGCCUGCAGGUCGACUCUAGAAAACAUG | < -7.54 |
| GGCUAGAACUAGUGGAUCCCCCGGCGCCCGGCGGCUCGAGCCCGGGUAAGUUUGAUUAGUCUGCAUGCCGCCGGGCGCCAUGCCUGCAGGUCGACUCUAGAAAACAUG | < -7.27 |
| GGCUAGAACUAGUGGAUCCCCCGGCGCCCGGCGGCUCGAGCCCGGGUAAGUUCAAUGAGUCUGCAUGCCGCCGGGCGCCAUGCCUGCAGGUCGACUCUAGAAAACAUG | -8.45 |
| GGCUAGAACUAGUGGAUCCCCCGGCGCCCGGCGGCUCGAGCCCGGGUAAGUUGAACAUGUCUGCAUGCCGCCGGGCGCCAUGCCUGCAGGUCGACUCUAGAAAACAUG | < -7.07 |

A few values from the results shown.
GGCUAGAACUAGUGGAUCCCCCGGCGCCCGGCGGCUCGAGCCCGGGUAAGCAGAAAAGGUCUGCAUGCCGCCGGGCGCCAUGCCUGCAGGUCGACUCUAGAAAACAUG | binding signal (log2 enrichment (interaction score)): < -7.76
GGCUAGAACUAGUGGAUCCCCCGGCGCCCGGCGGCUCGAGCCCGGGUAAGUUCAGACAGUCUGCAUGCCGCCGGGCGCCAUGCCUGCAGGUCGACUCUAGAAAACAUG | binding signal (log2 enrichment (interaction score)): < -7.43
